Results as given in PubChem BioAssay AID1347423 (Functional Genomics Laboratory (NCATS/FGL), 2020).
Screen size: about 52,000 sequences; about 210 (0.4%) were called active.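 How the source made its calls: active means gene whose silencing raises cell survival under the drug, median off-target-corrected z-score across its silencing RNAs 2 or more; inactive means the rest.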 The list shows a part of the results.

Experiment: Resistance to Poly (ADP-Ribose) Polymerase inhibitor: Gene Identification via Genome-wide siRNA Screen
Conditions: mouse BRCA2 R2336H ES cells, olaparib, CellTiter-Glo viability; hits give high values
Method in brief: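 Genome-wide siRNA screen (3 siRNAs/gene, 20 nM) in mouse ES cells carrying hypomorphic BRCA2 R2336H; olaparib 500 nM added 48 h post-transfection, CellTiter-Glo viability 72 h later. Normalized to plate-median negative control; MAD z-scores, gene median, seed-adjusted.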

Sequence | z-score
GGGCAAAAGUACUUUGACUTT against Ensa | inactive: -0.779
GGAAAAAGCGGUGACCAACTT against Ndufs2 | inactive: 0.403
GGUUUCUUGCCAAGAAAUUTT against Accn5 | inactive: 0.346
GGUCUUCCUUCCAGUGUUCTT against Slc5a8 | inactive: 2.17
GGGCCAUUUUCGAUGGUAGTT against Hs3st3a | inactive: 0.945
GGUGAUCAAUACAAGCCGATT against Art1 | inactive: 0.0468
GCUAAUGUCCGGUUUGUUGTT against Recql5 | inactive: 1.32
GCUCAGGAAUUUGACACCATT against Lphn3 | inactive: 0.724
AACUCGUGUGCAACGUGGUTT against 4833401D15Rik | inactive: 0.578
GCUCAAGUGCGGAGAAUAATT against Tmem23 | inactive: -2.04
GGGAUUUUCAGGGAGAUUUTT against 2810052M02Rik | inactive: -0.649
GGCAGAGGUACAAUCAGAUTT against Siat8b | inactive: 0.156
GGUACAGCUGGUUCUCUUUTT against Olfr1018 | inactive: 0.487
GGUAACAGCAUUGAAGGUUTT against C1qr1 | inactive: -0.952
GGGCUCUACUAUUUUUUUUTT against Polh | inactive: -0.851
GCUCGGCUUUAGAGACCUATT against 2810437L13Rik | inactive: 0.888
GCAGUGACCUCUGGUCAUUTT against Abcc1 | inactive: 1.67
GGCGAUGAAGUCUACGUGATT against BC040774 | inactive: 0.00732
CGGAAAGGCGAGGGAUACUTT against Fkbp5 | inactive: 0.765
GGACAAGAAGAAGAAGCGCTT against Cbara1 | inactive: 1.39
GAAUCCGAGAUACGAGCCUTT against H2-D4 | inactive: 0.794
GGUGUAUUCAGAGAAGAAGTT against BC019731 | inactive: -0.504
GGUAUCAAGUGCAGAAUGUTT against Slc37a1 | active: 1.99
GGGUAUCUGUUCUGAUACUTT against Lsm11 | inactive: 0.413
GGCAGACCGGUAUUUUGUGTT against Ascc2 | inactive: 1.37
GGAGUUUCUCCAAGAAAAATT against Hrbl | inactive: 0.425
GGAGAUGAUCUUCAACCUUTT against Eya2 | inactive: -0.54

Part of the list above, with each value named:
GGCGAUGAAGUCUACGUGATT against BC040774
  z-score: inactive: 0.00732
GGGUAUCUGUUCUGAUACUTT against Lsm11
  z-score: inactive: 0.413

Next records

Sequence | z-score
GGAUCAGAACGUGGUGCAUTT against Slc12a5 | inactive: 1.49
CCUAUAUCAUCAUGGUUUGTT against Txndc1 | inactive: 1.35
GGAGUGACAAAAAUGUCGGTT against Snx13 | inactive: 0.2
GGCUUCCUCAAGAACUUUCTT against Acly | inactive: 0.644
CCUUGGGACUGACUGUAAGTT against A230072I16Rik | inactive: 2.25
GGAGUUCAAGAUCUGGAAGTT against 2410004B18Rik | inactive: 0.554
GCAAAACAGUGUUCUAUUATT against Scap2 | inactive: -0.659
GCGAAAGACAGACACGACCTT against Slc4a4 | inactive: 0.367
GGAACCAAAGCGAAUUUUATT against Hoxa11 | inactive: 0.0602
GCUACAUCAUGAAAGACCCTT against 2210021J22Rik | inactive: 0.479
GCAGACAACUAGACAUACATT against Selk | inactive: 0.087
CCUCAAAUUAGUGCAGUUATT against Dnahc8 | inactive: -0.786
GGGAUUAAAGAUUUGGUUGTT against 5430404L10Rik | inactive: -0.243
GGUUAUUUUGGCUAUAAGATT against Traf3 | inactive: 0.163
GGUCAUUCGCUUCGAAAAGTT against C1qb | inactive: -0.857
GCGAUGCUGGCAAGUAUGUTT against Robo1 | inactive: -0.283
GGCUUCAGUGAUGAAUGAATT against MGC6357 | inactive: -0.271
GCUGGUGUCUUAUGGCCUATT against 9130008F23Rik | inactive: -0.704
GCCUCUUCAUUUAGCUAAUTT against Klhl10 | inactive: 1.52
GGACAACAGUGGAAGGCUCTT against Serpinb1a | inactive: -0.777
GGAAAAAGAAAAAGAAGGUTT against Timeless | inactive: -0.806
CCGUGAACCUAAACCUGUGTT against Rhog | inactive: 0.83
GGAAGACUCAGAGAUCCGATT against Atp13a | inactive: -1.57
GGUGAAAUAUGUGUAUCAGTT against Psmb9 | inactive: 0.257
GUUGUCCUCUUUGUCAUCATT against Olfr502 | inactive: 1.38
GGAAUGAUGAUGUCUCAUATT against Fnbp3 | inactive: -3.25
GCACCUCGGUCAUUUAUAUTT against G430022H21Rik | inactive: 0.399

Sequence | z-score
GCACCUAUUCAAUGAGAAGTT against Chrnd | inactive: -1.57
GGCUAGAAACUUGAGUUUCTT against Prnp | inactive: 1.09
GCAUAACAAAGAGGUUGAATT against BC053071 | inactive: -0.0971
GCAAUACUCACCUCUUAAATT against Scamp2 | inactive: -0.88
GGUAACUGGGAAUUGUGUUTT against Vti1a | inactive: -0.171
CUUCUUCUAGCCUACCUCATT against 4930415J05Rik | inactive: -1.83
GCAAAUUUAGUUGACCUUGTT against Ghitm | inactive: 0.161
GGAAACAGGAAAGUUAAUUTT against Fyco1 | inactive: 0.388
GGAAGGAGAAAAACAUAAATT against Hnrpm | inactive: -0.404
GGGCCUAUUAAUCUUGAGUTT against Klrb1b | inactive: 0.532
CGCAAGUGGAUUGUAAUAATT against Sema3e | inactive: -0.446
GCAGACUUGGGUGUCUCUUTT against BC030183 | inactive: -1.99
GGAGGAAAGGGAAGAAUUUTT against Rnf125 | inactive: -0.794
GGCCUCAACUAAGAACCCUTT against 2010005A06Rik | inactive: 0.206
GCUACGGAACCUCUAGACATT against Cbln3 | inactive: 2.24
GCUUAUAAUGGCAAUAUUGTT against Nvl | inactive: 0.272
GGCCACUUAAAUCAGAACUTT against Hoxc8 | inactive: 0.298
CCACAAUUUUUUCUGCCUCTT against Olfr492 | inactive: 0.658
GCACUACCUGUAUUAAACUTT against Efhd2 | inactive: 0.886
GCCCAAGGUAACAACAAGCTT against Rtn4r | inactive: -0.828
CGAUUUGCAGCCCUCAUGATT against 6230427J02Rik | inactive: -1.62
GGGCUAUGUUGUCUCAAAATT against 2210006M16Rik | inactive: 1.05
GGCAGUGCCAAUGAACAAGTT against Tceb2 | inactive: 0.426
GGAUGGAAUGCAUCGAUUATT against Adipor2 | inactive: 1.31
CCAGGAACCAGAAAAAGAUTT against Aven | inactive: 0.952
CGACAACGACAUCAUGGAATT against Sfrp2 | inactive: -0.0761
GCCUUAAGUAUUGUUACUUTT against Tnfrsf25 | inactive: -0.337

Sequence | z-score
GGUCACAAUUGCGCUAUGATT against MGC58970 | inactive: -2.65
GGCUAAAUUCUACUUGAUATT against Ppfibp1 | inactive: 0.105
GGAUUCUUGAGCAGAUAGCTT against Gbp4 | inactive: -0.148
GGCAAUGGUUCAGAGGACUTT against Wbscr21 | inactive: -1.03
GGAGCAUCCCGACUACAAGTT against Sox21 | inactive: 0.0612
GGUUGUAGACGUAAAUGACTT against Pcdhgc3 | inactive: 1.04
GCACUUGCUAUUAGUGUCCTT against Rhod | inactive: 0.337
GGAAUUUCAGGAGAUACUGTT against 1110035L05Rik | inactive: -1.02
GCAGAACGUAUUCUGAAACTT against Uap1 | inactive: -0.312
GGAGCCAAGUGUACAGUCUTT against Stk19 | inactive: -0.31
GGAACAAUUCUGGGUAAUUTT against Bcl2l10 | inactive: -1.53
GGCAACCUUUUUAAAGAAGTT against D4Bwg0951e | inactive: 0.365
GGUUCUGCACAUCUGAACATT against Cst3 | inactive: -1.21
GGUCAGAGCCAAUUUCUAUTT against Kcnmb1 | inactive: -0.128
GGGCCUGAUUUGUCCUCACTT against Sytl1 | inactive: -0.455
GCGGACAGGACAUUGAUCUTT against Arpc3 | inactive: -0.504
GGCAGACUGCUGACAUAUGTT against Cd37 | inactive: -0.667
CCAUAUCCUGAAUACACCCTT against Olfr295 | inactive: 0.525
CGAGAGUAACUUUCGUCAGTT against Dedd | inactive: 1.14
CGGACACUUUCUGUACUUATT against Mgat2 | inactive: -0.0657
GGACCAUAUCAUUGAUAUATT against Thoc3 | inactive: -0.744
CCCAUACUAAGGAACUGCATT against Tnfrsf12a | inactive: 0.0381
GGCUGCUCUUGAAAAUGAUTT against D14Ertd226e | inactive: 0.368
GGACUGUUUUAGAUUACUUTT against Klra4 | inactive: -1.6

Reprinted at random: 2 records from the list.
Sequence | z-score
GGAUUCUUGAGCAGAUAGCTT against Gbp4 | inactive: -0.148
GCUGGUGUCUUAUGGCCUATT against 9130008F23Rik | inactive: -0.704
